Counter-ions that a name gives are not always drawn. The list shows a part of the results. Baselines shift from plate to plate; read single values as rough.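 The strain is a K-12 laboratory model grown without shaking in 96-well plates, and biofilm is the crystal violet stain retained on the wells, read as absorbance. Drugs were picked as candidate specific biofilm blockers when they cut staining strongly but slowed free-floating growth by less than 70%.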
Test system: Escherichia coli W3110
Test: biofilm formation (crystal violet staining) relative to untreated control; higher = more biofilm
Conditions: 10 µM; 20-24 h; 30 °C; TB

| Structure (SMILES) | biofilm formation [%] |
| --- | --- |
| O=C(O)c1cn(C2CC2)c2cc(N3CCNCC3)c(F)cc2c1=O [Ciprofloxacin hydrochloride monohydrate] | 9 |
| CCOc1nc2cccc(C(=O)OCc3oc(=O)oc3C)c2n1Cc1ccc(-c2ccccc2-c2noc(=O)[nH]2)cc1 [Azilsartan kamedoxomil] | 65 |
| Nc1ccccc1S(N)(=O)=O [2-Aminobenzenesulfonamide] | 49 |
| COc1ccccc1Oc1c(NS(=O)(=O)c2ccc(C(C)(C)C)cc2)nc(-c2ncccn2)nc1OCCO [Bosentan] | 97 |
| CN(C)CCC=C1c2ccccc2COc2ccccc21 [Doxepin hydrochloride] | 53 |
| CC(C)[N+](C)(CCOC(=O)C1c2ccccc2Oc2ccccc21)C(C)C [Propantheline bromide] | 65 |
| CCC[C@@H]1C[C@@H](C(=O)N[C@@H]([C@H]2O[C@H](SC)[C@H](O)[C@@H](O)[C@H]2O)[C@H](C)Cl)N(C)C1 [Clindamycin hydrochloride] | 47 |
| O=C(N[C@H](CO)[C@H](O)c1ccc([N+](=O)[O-])cc1)C(Cl)Cl [Chloramphenicol] | 32 |
| C=C1/C(=C\C=C2/CCC[C@]3(C)[C@@H]([C@H](C)CCCC(C)C)CC[C@@H]23)C[C@@H](O)C[C@@H]1O [Alfacalcidol] | 52 |
| Cc1ccc2c(c1)c1c3n2CCNC3CCC1 (configuration not stated) [Pirlindole mesylate] | 81 |
| CCN(CC)CCNC(=O)c1cc(Cl)c(N)cc1OC [Metoclopramide monohydrochloride] | 61 |
| CCOc1ccc2ccccc2c1C(=O)N[C@@H]1C(=O)N2[C@@H]1SC(C)(C)[C@@H]2C(=O)O [Nafcillin sodium salt monohydrate] | 64 |
| CC(C)(CO)C(O)C(=O)NCCCO (configuration not stated) [Panthenol (D)] | 71 |
| CN(C)C/C=C(/c1ccc(Br)cc1)c1cccnc1 [Zimelidine dihydrochloride monohydrate] | 57 |
| Cn1cnc2c1c(=O)[nH]c(=O)n2C [Theobromine] | 83 |
| Cc1c(-c2ccccc2)oc2c(C(=O)OCCN3CCCCC3)cccc2c1=O [Flavoxate hydrochloride] | 70 |
| CN[C@@H]1[C@@H](O[C@H]2O[C@H](CO)[C@@H](N)[C@H](O)[C@H]2O)OC2C[C@@H](N)[C@@H](O[C@H]3[C@H](O)[C@@H](O)[C@H](N)C[C@@H]3N)OC2[C@@H]1O (some centres not stated) [Apramycin] | 72 |
| Cc1onc(-c2ccccc2Cl)c1C(=O)N[C@@H]1C(=O)N2[C@@H]1SC(C)(C)[C@@H]2C(=O)O [Cloxacillin sodium salt] | 50 |
| N[C@@H](C(=O)N[C@@H]1C(=O)N2C(C(=O)O)=C(Cl)CC[C@H]12)c1ccccc1 [Loracarbef] | 86 |
| C#Cc1cccc(Nc2ncnc3cc(OCCOC)c(OCCOC)cc23)c1 [Erlotinib] | 87 |
| CC(C)Nc1cccnc1N1CCN(C(=O)c2cc3cc(NS(C)(=O)=O)ccc3[nH]2)CC1 [Delavirdine] | 84 |
| NS(=O)(=O)c1cc2c(cc1Cl)NC(C(Cl)Cl)NS2(=O)=O (configuration not stated) [Trichlormethiazide] | 57 |
| CN[C@@H]1[C@H](O)[C@H](NC)[C@H]2O[C@@]3(O)C(=O)C[C@@H](C)O[C@H]3O[C@@H]2[C@H]1O [Spectinomycin dihydrochloride] | 41 |

| Structure (SMILES) | biofilm formation [%] |
| --- | --- |
| C[C@H]1O[C@@H](O[C@H]2[C@@H](O)C[C@H](O[C@H]3[C@@H](O)C[C@H](O[C@H]4CC[C@@]5(C)[C@H](CC[C@@H]6[C@@H]5C[C@@H](O)[C@]5(C)[C@@H](C7=CC(=O)OC7)CC[C@]65O)C4)O[C@@H]3C)O[C@@H]2C)C[C@H](O)[C@@H]1O [Digoxin] | 72 |
| O=C(OCC(O)CO)c1ccccc1Nc1ccnc2cc(Cl)ccc12 (configuration not stated) [Glafenine hydrochloride] | 66 |
| CC(C(=O)O)c1ccc(-c2ccccc2)c(F)c1 (configuration not stated) [Flurbiprofen] | 106 |
| Cc1ccccc1C(=O)Nc1ccc(C(=O)N2CCCC(O)c3cc(Cl)ccc32)c(C)c1 (configuration not stated) [Tolvaptan] | 87 |
| CN(C)C(=O)C(CCN1CCC(O)(c2ccc(Cl)cc2)CC1)(c1ccccc1)c1ccccc1 [Loperamide hydrochloride] | 78 |
| CCCCc1cc2ccccc2c(OCCN(C)C)n1 [Dimethisoquin hydrochloride] | 77 |
| CC(C(=O)O)c1ccc2c(c1)[nH]c1ccc(Cl)cc12 (configuration not stated) [Carprofen] | 78 |
| Cc1cccc(C)c1NC(=O)C(C)N (configuration not stated) [Tocainide hydrochloride] | 66 |
| Cc1c(N(C)C)c(=O)n(-c2ccccc2)n1C [Amidopyrine] | 72 |
| Oc1c(Cl)cc(Cl)c(Cl)c1Cc1c(O)c(Cl)cc(Cl)c1Cl [Hexachlorophene] | 82 |
| COc1ccc(/C=C/C(=O)Nc2ccccc2C(=O)O)cc1OC [Tranilast] | 97 |
| CCOC(=O)C1=C(COCCN)NC(C)=C(C(=O)OC)C1c1ccccc1Cl (configuration not stated) [Amlodipine] | 92 |
| CN1[C@@H]2CC[C@H]1C[C@@H](OC(=O)c1c[nH]c3ccccc13)C2 [Tropisetron hydrochloride] | 115 |
| Cc1cccc(C)c1OCC(C)N (configuration not stated) [Mexiletine hydrochloride] | 76 |
| N#Cc1cc(NC(=O)C(=O)O)c(Cl)c(NC(=O)C(=O)O)c1 [Lodoxamide] | 99 |
| Nc1nc(CC(=O)Nc2ccc(CCNC[C@H](O)c3ccccc3)cc2)cs1 [Mirabegron] | 54 |
| NC[C@@H]1O[C@H](O[C@H]2[C@@H](O)[C@H](O[C@@H]3[C@@H](O)[C@H](N)C[C@H](N)[C@H]3O[C@H]3O[C@H](CO)[C@@H](O)[C@H](O)[C@H]3N)O[C@@H]2CO)[C@H](N)[C@@H](O)[C@@H]1O [Paromomycin sulfate] | 50 |
| COc1ccccc1OCC(O)CO (configuration not stated) [Guaifenesin] | 65 |
| CC(=O)[C@H]1CC[C@H]2[C@@H]3C=CC4=CC(=O)CC[C@@]4(C)[C@@H]3CC[C@]12C [Dydrogesterone] | 63 |
| CN(C)CCOC(C)(c1ccccc1)c1ccccn1 (configuration not stated) [Doxylamine succinate] | 68 |
| CC(=O)c1ccc2c(c1)N(CCCN(C)C)c1ccccc1S2 [Acetopromazine maleate salt] | 62 |
| Oc1c(I)cc(Cl)c2cccnc12 [Clioquinol] | 11 |
| CC(C)(C#N)c1cc(Cn2cncn2)cc(C(C)(C)C#N)c1 [Anastrozole] | 103 |

| Structure (SMILES) | biofilm formation [%] |
| --- | --- |
| CN(C(=O)C(Cl)Cl)c1ccc(OC(=O)c2ccco2)cc1 [Diloxanide furoate] | 54 |
| Nc1ccn([C@H]2CC[C@@H](CO)O2)c(=O)n1 [Zalcitabine] | 94 |
| CN1CCN(CCCN2c3ccccc3Sc3ccc(C(F)(F)F)cc32)CC1 [Trifluoperazine dihydrochloride] | 85 |
| COc1ccc(OC)c(C(O)CNC(=O)CN)c1 (configuration not stated) [Midodrine hydrochloride] | 84 |
| CN(C)CCN1C(=O)c2ccccc2N(C)c2ccccc21 [Dibenzepine hydrochloride] | 73 |
| OC(CNCC(O)C1CCc2cc(F)ccc2O1)C1CCc2cc(F)ccc2O1 (configuration not stated) [Nebivolol hydrochloride] | 72 |
| CC[C@H](C)[C@H](N)C1=N[C@H](C(=O)N[C@@H](CC(C)C)C(=O)N[C@H](CCC(=O)O)C(=O)N[C@H](C(=O)N[C@H]2CCCCNC(=O)[C@H](CC(N)=O)NC(=O)[C@@H](CC(=O)O)NC(=O)[C@H](Cc3cnc[nH]3)NC(=O)[C@@H](Cc3ccccc3)NC(=O)[C@H]([C@@H](C)CC)NC(=O)[C@@H](CCCN)NC2=O)[C@@H](C)CC)CS1 [Bacitracin] | 29 |
| CC(=O)NCCCS(=O)(=O)O [Acamprosate calcium] | 101 |
| CCOC(=O)O[C@]1(C(=O)COC(=O)CC)CC[C@H]2[C@@H]3CCC4=CC(=O)C=C[C@]4(C)[C@H]3[C@@H](O)C[C@@]21C [Prednicarbate] | 69 |
| CC(C)(C)NCC(O)COc1cccc2c1CCC(=O)N2 (configuration not stated) [Carteolol hydrochloride] | 70 |
| C=C1c2c(Cl)ccc(O)c2C(=O)C2=C(O)[C@]3(O)C(=O)C(C(N)=O)=C(O)[C@@H](N(C)C)[C@@H]3[C@@H](O)[C@H]12.O=C(O)c1cc(S(=O)(=O)O)ccc1O [Meclocycline sulfosalicylate] | 45 |
| COc1ccc2c(c1)c(CC(=O)O)c(C)n2C(=O)c1ccc(Cl)cc1 [Indomethacin] | 48 |
| CN1CCC(=C2c3ccccc3CCc3cccnc32)CC1 [Azatadine maleate] | 97 |
| Nc1nc2ccc(OC(F)(F)F)cc2s1 [Riluzole hydrochloride] | 60 |
| C(=C\c1ccccc1)/CN1CCN(C(c2ccccc2)c2ccccc2)CC1 [Cinnarizine] | 48 |
| O=C(C1CCCCC1)N1CC(=O)N2CCc3ccccc3C2C1 (configuration not stated) [Praziquantel] | 62 |
| CC(C(=O)O)c1ccc2c(c1)Cc1cccnc1O2 (configuration not stated) [Pranoprofen] | 67 |
| CSc1ccc2c(c1)C(N1CCN(C)CC1)Cc1ccccc1S2 (configuration not stated) [Methiothepin maleate] | 59 |
| Cc1c(C)c2c(c(C)c1O)CCC(C)(COc1ccc(CC3SC(=O)NC3=O)cc1)O2 (configuration not stated) [Troglitazone] | 82 |
| COC(c1ccccc1)(c1ccccc1)[C@H](Oc1nc(C)cc(C)n1)C(=O)O [Ambrisentan] | 78 |
| COc1ccc([C@@H]2CC(=O)c3c(O)cc(O[C@@H]4O[C@H](CO[C@@H]5O[C@@H](C)[C@H](O)[C@@H](O)[C@H]5O)[C@@H](O)[C@H](O)[C@H]4O)cc3O2)cc1O [Hesperidin] | 82 |

Not a retest: an excerpt of the list.

| Structure (SMILES) | biofilm formation [%] |
| --- | --- |
| CCN(CC)CCNC(=O)c1cc(Cl)c(N)cc1OC [Metoclopramide monohydrochloride] | 61 |
| CCOc1ccc2ccccc2c1C(=O)N[C@@H]1C(=O)N2[C@@H]1SC(C)(C)[C@@H]2C(=O)O [Nafcillin sodium salt monohydrate] | 64 |
| CC(C)(CO)C(O)C(=O)NCCCO (configuration not stated) [Panthenol (D)] | 71 |
| CN(C)C/C=C(/c1ccc(Br)cc1)c1cccnc1 [Zimelidine dihydrochloride monohydrate] | 57 |
| Cn1cnc2c1c(=O)[nH]c(=O)n2C [Theobromine] | 83 |
| Cc1c(-c2ccccc2)oc2c(C(=O)OCCN3CCCCC3)cccc2c1=O [Flavoxate hydrochloride] | 70 |
| CN[C@@H]1[C@@H](O[C@H]2O[C@H](CO)[C@@H](N)[C@H](O)[C@H]2O)OC2C[C@@H](N)[C@@H](O[C@H]3[C@H](O)[C@@H](O)[C@H](N)C[C@@H]3N)OC2[C@@H]1O (some centres not stated) [Apramycin] | 72 |
| Cc1onc(-c2ccccc2Cl)c1C(=O)N[C@@H]1C(=O)N2[C@@H]1SC(C)(C)[C@@H]2C(=O)O [Cloxacillin sodium salt] | 50 |
| N[C@@H](C(=O)N[C@@H]1C(=O)N2C(C(=O)O)=C(Cl)CC[C@H]12)c1ccccc1 [Loracarbef] | 86 |
| C#Cc1cccc(Nc2ncnc3cc(OCCOC)c(OCCOC)cc23)c1 [Erlotinib] | 87 |
| CC(C)Nc1cccnc1N1CCN(C(=O)c2cc3cc(NS(C)(=O)=O)ccc3[nH]2)CC1 [Delavirdine] | 84 |
| NS(=O)(=O)c1cc2c(cc1Cl)NC(C(Cl)Cl)NS2(=O)=O (configuration not stated) [Trichlormethiazide] | 57 |
| CN[C@@H]1[C@H](O)[C@H](NC)[C@H]2O[C@@]3(O)C(=O)C[C@@H](C)O[C@H]3O[C@@H]2[C@H]1O [Spectinomycin dihydrochloride] | 41 |
| C[C@H]1O[C@@H](O[C@H]2[C@@H](O)C[C@H](O[C@H]3[C@@H](O)C[C@H](O[C@H]4CC[C@@]5(C)[C@H](CC[C@@H]6[C@@H]5C[C@@H](O)[C@]5(C)[C@@H](C7=CC(=O)OC7)CC[C@]65O)C4)O[C@@H]3C)O[C@@H]2C)C[C@H](O)[C@@H]1O [Digoxin] | 72 |
| O=C(OCC(O)CO)c1ccccc1Nc1ccnc2cc(Cl)ccc12 (configuration not stated) [Glafenine hydrochloride] | 66 |
| CC(C(=O)O)c1ccc(-c2ccccc2)c(F)c1 (configuration not stated) [Flurbiprofen] | 106 |
| Cc1ccccc1C(=O)Nc1ccc(C(=O)N2CCCC(O)c3cc(Cl)ccc32)c(C)c1 (configuration not stated) [Tolvaptan] | 87 |
| CN(C)C(=O)C(CCN1CCC(O)(c2ccc(Cl)cc2)CC1)(c1ccccc1)c1ccccc1 [Loperamide hydrochloride] | 78 |
| CCCCc1cc2ccccc2c(OCCN(C)C)n1 [Dimethisoquin hydrochloride] | 77 |

Reference: the supplement of paper PMC7580552
